Assay results taken from PMC2925947.
These are yes or no findings as the source states them, for the method shown. Binding seen in cells or lysates may run through a third protein. Some binding calls cover weakened binding; strength is not graded here.

The chains behind the UniProt entries cited, without tags or fusion partners.
UniProt O94992: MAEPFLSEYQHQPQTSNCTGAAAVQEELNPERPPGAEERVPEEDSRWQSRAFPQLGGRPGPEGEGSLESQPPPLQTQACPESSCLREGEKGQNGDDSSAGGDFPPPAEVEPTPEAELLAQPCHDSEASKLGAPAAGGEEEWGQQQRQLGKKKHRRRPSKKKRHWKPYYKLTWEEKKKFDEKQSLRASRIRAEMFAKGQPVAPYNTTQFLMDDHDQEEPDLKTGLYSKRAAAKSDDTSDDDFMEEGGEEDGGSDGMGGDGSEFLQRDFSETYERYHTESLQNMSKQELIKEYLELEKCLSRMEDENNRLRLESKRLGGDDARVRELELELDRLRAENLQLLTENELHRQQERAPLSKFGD

Biological target: T1, La related protein LARP7 (human (endogenous in HeLa)) (UniProt Q4G0J3)
T1 sequence: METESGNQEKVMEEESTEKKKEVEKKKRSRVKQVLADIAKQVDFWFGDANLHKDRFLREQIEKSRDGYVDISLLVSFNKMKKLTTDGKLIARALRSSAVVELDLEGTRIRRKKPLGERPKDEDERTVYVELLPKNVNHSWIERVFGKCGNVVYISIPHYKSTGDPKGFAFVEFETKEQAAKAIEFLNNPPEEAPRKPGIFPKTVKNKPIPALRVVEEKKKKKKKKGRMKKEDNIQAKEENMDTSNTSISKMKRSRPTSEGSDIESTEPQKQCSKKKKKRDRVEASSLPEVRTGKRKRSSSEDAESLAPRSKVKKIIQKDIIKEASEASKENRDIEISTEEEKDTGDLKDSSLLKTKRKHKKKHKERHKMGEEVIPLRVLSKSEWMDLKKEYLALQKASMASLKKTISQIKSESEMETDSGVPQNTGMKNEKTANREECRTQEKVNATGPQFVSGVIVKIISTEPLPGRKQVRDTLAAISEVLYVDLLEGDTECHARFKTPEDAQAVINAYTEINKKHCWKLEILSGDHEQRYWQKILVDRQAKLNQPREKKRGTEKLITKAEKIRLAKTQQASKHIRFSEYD
Test: co-IP; 7SK snRNP immunoprecipitated from HeLa lysate (300 µl, 4°C, 2 hr) with affinity purified anti-LARP7 antibody covalently attached to M-270 Epoxy Dynabeads; washed in Lysis Buffer (150 mM NaCl, 0.5% NP-40); Western blot for LARP7, Cdk9, HEXIM1

Substance: HEXIM1 (from UniProt O94992 1-359)
- binding: binds
